Results taken from paper doi:10.1101/2025.08.09.669493.
Where a chain is given by its changes, count along the chain named. Results are given in words; binding and its absence hold for the method and conditions named. Binding seen in cells or lysates may run through a third protein. Binding calls can cover weak binding; strength is not graded here.

Columns and labels:
[1] = molecular target: T1, interferon regulatory factor 4 (IRF4), wild type (human) (UniProt Q15306); test: co-IP
T1 sequence: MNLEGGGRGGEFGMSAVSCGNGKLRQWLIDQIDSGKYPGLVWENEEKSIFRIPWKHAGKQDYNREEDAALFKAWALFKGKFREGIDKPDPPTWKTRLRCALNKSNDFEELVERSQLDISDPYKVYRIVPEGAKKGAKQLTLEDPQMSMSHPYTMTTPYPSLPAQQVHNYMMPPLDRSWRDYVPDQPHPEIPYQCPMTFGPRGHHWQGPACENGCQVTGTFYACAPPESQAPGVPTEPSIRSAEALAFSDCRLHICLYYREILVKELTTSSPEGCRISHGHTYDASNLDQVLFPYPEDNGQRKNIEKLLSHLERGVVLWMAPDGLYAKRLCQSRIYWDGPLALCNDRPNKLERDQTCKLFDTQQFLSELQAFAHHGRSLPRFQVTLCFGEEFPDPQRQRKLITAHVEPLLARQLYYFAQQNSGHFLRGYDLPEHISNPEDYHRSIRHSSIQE

[2] = molecular target: T2, IRF4^R98A/C99A, IRF-motif-binding-deficient mutant of IRF4 (human) (UniProt Q15306); test: co-IP
T2 sequence: T1 sequence with R98A, C99A

“Kaposi's sarcoma-associated herpesvirus (KSHV) vIRF3” was tested. Which binding [1] did it give?
Its binding is “binds”.

What about the binding [2] of the same substance?
The binding was “binds”.
